Reference: the supplement of paper PMC4604168 (melanoma cell lines)
This is one part of the list. Single values are uncertain, as repeats are few or missing.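 The apoptosis fraction was the count of cleaved-PARP antibody-stained nuclei relative to all DNA-stained nuclei, imaged in 1,536-well plates. Screening doses were set so most cells survived, and baseline and induced cleaved-PARP levels vary greatly across cell lines.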

Columns and labels:
Experiment in all cases: cleaved PARP positive nuclei fraction relative to DMSO control; melanoma cells; higher = more apoptosis
Settings in all cases: library dose: low library concentration; 72 h
501Mel = tested on: 501Mel
A101D = tested on: A101D
A2058 = tested on: A2058
A375 = tested on: A375
C32 = tested on: C32
CBRC008 = tested on: CBRC008 (line from a melanoma biopsy)
CBRC014 = tested on: CBRC014 (line from a melanoma biopsy)
CBRC016 = tested on: CBRC016 (line from a melanoma biopsy)
CBRC017 = tested on: CBRC017 (line from a melanoma biopsy)
CBRC034 = tested on: CBRC034 (line from a melanoma biopsy)
COLO792 = tested on: COLO792
COLO800 = tested on: COLO800
COLO829 = tested on: COLO829
G361 = tested on: G361
IPC-298 = tested on: IPC-298
IST-MEL1 = tested on: IST-MEL1
LB2518-MEL = tested on: LB2518-MEL
LOXIMVI = tested on: LOXIMVI
MEL-HO = tested on: MEL-HO

SMILES | cleaved PARP positive nuclei fraction (501Mel) | cleaved PARP positive nuclei fraction (A101D) | cleaved PARP positive nuclei fraction (A2058) | cleaved PARP positive nuclei fraction (A375) | cleaved PARP positive nuclei fraction (C32) | cleaved PARP positive nuclei fraction (CBRC008) | cleaved PARP positive nuclei fraction (CBRC014) | cleaved PARP positive nuclei fraction (CBRC016) | cleaved PARP positive nuclei fraction (CBRC017) | cleaved PARP positive nuclei fraction (CBRC034) | cleaved PARP positive nuclei fraction (COLO792) | cleaved PARP positive nuclei fraction (COLO800) | cleaved PARP positive nuclei fraction (COLO829) | cleaved PARP positive nuclei fraction (G361) | cleaved PARP positive nuclei fraction (IPC-298) | cleaved PARP positive nuclei fraction (IST-MEL1) | cleaved PARP positive nuclei fraction (LB2518-MEL) | cleaved PARP positive nuclei fraction (LOXIMVI) | cleaved PARP positive nuclei fraction (MEL-HO)
CNC(=O)c1cc(Oc2ccc(NC(=O)Nc3ccc(Cl)c(C(F)(F)F)c3)cc2)ccn1 [sorafenib] + O=C(O)c1ccc2c(c1)nc(Nc1cccc(Cl)c1)c1ccncc12 [CX4945] (first compound 0.4 µM, partner dose 0.4 µM) | 58.8% | 84.5% | 188% | 55.6% | 95.6% | 235% | 114% | 68.4% | 133% | 220% | 27.2% | 47% | 97.2% | 85.8% | 89.7% | 53.1% | 141% | 51.6% | 149%
CNC(=O)c1cc(Oc2ccc(NC(=O)Nc3ccc(Cl)c(C(F)(F)F)c3)cc2)ccn1 [sorafenib] + C#Cc1cccc(Nc2ncnc3cc(OCCOC)c(OCCOC)cc23)c1 [erlotinib] (first compound 0.4 µM, partner dose 0.8 µM) | 62.9% | 171% | 102% | 122% | 90.8% | 167% | 93.4% | 18.2% | 78.3% | 74.1% | 107% | 102% | 38.7% | 85.8% | 193% | 186% | 87.5% | 54.1% | 120%
CN1CCN(c2ccc3nc(-c4c(N)c5c(F)cccc5[nH]c4=O)[nH]c3c2)CC1 [Dovitinib] + OCc1c[nH]c2ccccc12 [Indole-3-carbinol] (first compound 0.1 µM, partner dose 0.8 µM) | 150% | 99.2% | 88% | 137% | 119% | 26.4% | 78.5% | 114% | 87.8% | 34.8% | 70.4% | 102% | 100% | 116% | 126% | 126% | 60.8% | 322% | 52.3%
CS(=O)(=O)CCNCc1ccc(-c2ccc3ncnc(Nc4ccc(OCc5cccc(F)c5)c(Cl)c4)c3c2)o1 [lapatinib] + Nc1ncn([C@H]2C[C@H](O)[C@@H](CO)O2)c(=O)n1 [decitabine] (first compound 0.8 µM, partner dose 0.1 µM) | 196% | 355% | 143% | 21.2% | 70.7% | 97.3% | 99.9% | 71.9% | 119% | 36.6% | 150% | 79% | 70.6% | 120% | 61.3% | 45.7% | 103% | 53.2% | 94.9%
CC(C)C[C@H](NC(=O)[C@H](Cc1ccccc1)NC(=O)c1cnccn1)B(O)O [Bortezomib] + Nc1nc(F)nc2c1ncn2[C@@H]1O[C@H](CO)[C@@H](O)[C@@H]1O [fludarabine] (first compound 0.001 µM, partner dose 0.2 µM) | 8600% | 251% | 41.9% | 1620% | 108% | 629% | 160% | 303% | 425% | 116% | 118% | 59.4% | 209% | 2460% | 52.2% | 168% | 760% | 48.9% | 139%
C[C@@H](Oc1cc(-c2cnn(C3CCNCC3)c2)cnc1N)c1c(Cl)ccc(F)c1Cl [Crizotinib] + Cc1nc(Nc2ncc(C(=O)Nc3c(C)cccc3Cl)s2)cc(N2CCN(CCO)CC2)n1 [dasatanib] (first compound 0.2 µM, partner dose 0.004 µM) | 60.5% | 282% | 141% | 177% | 94.3% | 58.6% | 102% | 101% | 90.4% | 172% | 146% | 103% | 174% | 115% | 91.2% | 99.9% | 60.3% | 62.6% | 88.2%
O=C(O)[C@@H]1[O][Sb](=[O])([O][Sb]2(=[O])[O][C@H]([C@H](O)CO)[C@H](O)[C@H](C(=O)O)[O]2)[O][C@H]([C@H](O)CO)[C@@H]1O (some centres undefined) [stibogluconate] + CNC(=O)c1cc(Oc2ccc(NC(=O)Nc3ccc(Cl)c(C(F)(F)F)c3)cc2)ccn1 [sorafenib] (first compound 2 µM, partner dose 0.4 µM) | 68.2% | 42.6% | 124% | 340% | 71.5% | 110% | 91.4% | 102% | 109% | 75.5% | 128% | 81.8% | 63.4% | 155% | 65.2% | 542% | 89.9% | 31% | 81.1%
C[C@@H](Oc1cc(-c2cnn(C3CCNCC3)c2)cnc1N)c1c(Cl)ccc(F)c1Cl [Crizotinib] + O=C(O)[C@@H]1[O][Sb](=[O])([O][Sb]2(=[O])[O][C@H]([C@H](O)CO)[C@H](O)[C@H](C(=O)O)[O]2)[O][C@H]([C@H](O)CO)[C@@H]1O [stibogluconate] (first compound 0.2 µM, partner dose 2 µM) | 72% | 59.2% | 42.1% | 91% | 68.2% | 129% | 82.8% | 152% | 126% | 85.5% | 108% | 92.6% | 49.7% | 103% | 62.5% | 40.4% | 112% | 40.6% | 37.6%
C[C@@H](Oc1cc(-c2cnn(C3CCNCC3)c2)cnc1N)c1c(Cl)ccc(F)c1Cl [Crizotinib] + CS(=O)(=O)CCNCc1ccc(-c2ccc3ncnc(Nc4ccc(OCc5cccc(F)c5)c(Cl)c4)c3c2)o1 [lapatinib] (first compound 0.2 µM, partner dose 0.8 µM) | 53.6% | 58.7% | 99.7% | 113% | 76.5% | 163% | 86.4% | 365% | 108% | 69.9% | 111% | 147% | 200% | 75.7% | 126% | 62.7% | 107% | 40.4% | 117%
CC(C)C[C@H](NC(=O)[C@H](Cc1ccccc1)NC(=O)c1cnccn1)B(O)O [Bortezomib] + O=C(O)c1ccc2c(c1)nc(Nc1cccc(Cl)c1)c1ccncc12 [CX4945] (first compound 0.001 µM, partner dose 0.4 µM) | 316% | 420% | 147% | 134% | 82.1% | 1130% | 285% | 1150% | 638% | 190% | 100% | 105% | 185% | 5860% | 135% | 68.7% | 313% | 152% | 113%
O=C(O)[C@@H]1[O][Sb](=[O])([O][Sb]2(=[O])[O][C@H]([C@H](O)CO)[C@H](O)[C@H](C(=O)O)[O]2)[O][C@H]([C@H](O)CO)[C@@H]1O (some centres undefined) [stibogluconate] + Nc1cccc2c1CN(C1CCC(=O)NC1=O)C2=O [lenalidomide] (first compound 2 µM, partner dose 1 µM) | 68.2% | 142% | 101% | 238% | 88.2% | 178% | 92.4% | 115% | 85.1% | 247% | 155% | 56.6% | 158% | 120% | 89% | 56.1% | 71% | 76.6% | 72.6%
CN1CCN(c2ccc3nc(-c4c(N)c5c(F)cccc5[nH]c4=O)[nH]c3c2)CC1 [Dovitinib] + C[C@]1(c2nc3c(C(N)=O)cccc3[nH]2)CCCN1 [Veliparib] (first compound 0.1 µM, partner dose 1.4 µM) | 117% | 100% | 174% | 215% | 85.4% | 102% | 93% | 16.7% | 100% | 57.8% | 29.7% | 343% | 98.8% | 90.2% | 46.4% | 121% | 124% | 68.2% | 122%
CNC(=O)c1cc(Oc2ccc(NC(=O)Nc3ccc(Cl)c(C(F)(F)F)c3)cc2)ccn1 [sorafenib] + CCCS(=O)(=O)Nc1ccc(F)c(C(=O)c2c[nH]c3ncc(Cl)cc23)c1F [PLX4720] (first compound 0.4 µM, partner dose 0.08 µM) | 79.3% | 90.8% | 186% | 132% | 95.6% | 328% | 77.7% | 88.5% | 104% | 111% | 98.3% | 109% | 98.9% | 98.3% | 100% | 82.1% | 213% | 97.7% | 39.4%
C[C@@H](Oc1cc(-c2cnn(C3CCNCC3)c2)cnc1N)c1c(Cl)ccc(F)c1Cl [Crizotinib] + CN1CCN(c2ccc3nc(-c4c(N)c5c(F)cccc5[nH]c4=O)[nH]c3c2)CC1 [Dovitinib] (first compound 0.2 µM, partner dose 0.1 µM) | 115% | 139% | 241% | 101% | 81.2% | 161% | 116% | 28.7% | 96.9% | 141% | 74.6% | 90.8% | 137% | 125% | 43.2% | 127% | 139% | 95.3% | 42.1%
O=C(O)[C@@H]1[O][Sb](=[O])([O][Sb]2(=[O])[O][C@H]([C@H](O)CO)[C@H](O)[C@H](C(=O)O)[O]2)[O][C@H]([C@H](O)CO)[C@@H]1O (some centres undefined) [stibogluconate] + CCCS(=O)(=O)Nc1ccc(F)c(C(=O)c2c[nH]c3ncc(Cl)cc23)c1F [PLX4720] (first compound 2 µM, partner dose 0.08 µM) | 67.2% | 106% | 74.9% | 319% | 99.4% | 143% | 114% | 28.3% | 129% | 134% | 84.4% | 118% | 34.3% | 79.2% | 146% | 60.3% | 103% | 64.9% | 85.1%
Nc1ncn([C@H]2C[C@H](O)[C@@H](CO)O2)c(=O)n1 [decitabine] + COCC[n+]1c2c(n(Cc3cnccn3)c1C)C(=O)c1ccccc1C2=O [YM155] (first compound 0.1 µM, partner dose 0.0004 µM) | 56.4% | 240% | 261% | 209% | 75.3% | 262% | 99.9% | 131% | 123% | 83.2% | 170% | 142% | 181% | 151% | 139% | 45.5% | 133% | 77% | 147%

Only cleaved PARP positive nuclei fraction (CBRC008), cleaved PARP positive nuclei fraction (A101D) and cleaved PARP positive nuclei fraction (MEL-HO) (two entries from above):

| SMILES | cleaved PARP positive nuclei fraction (CBRC008) | cleaved PARP positive nuclei fraction (A101D) | cleaved PARP positive nuclei fraction (MEL-HO) |
| --- | --- | --- | --- |
| C[C@@H](Oc1cc(-c2cnn(C3CCNCC3)c2)cnc1N)c1c(Cl)ccc(F)c1Cl [Crizotinib] + O=C(O)[C@@H]1[O][Sb](=[O])([O][Sb]2(=[O])[O][C@H]([C@H](O)CO)[C@H](O)[C@H](C(=O)O)[O]2)[O][C@H]([C@H](O)CO)[C@@H]1O [stibogluconate] (first compound 0.2 µM, partner dose 2 µM) | 129% | 59.2% | 37.6% |
| C[C@@H](Oc1cc(-c2cnn(C3CCNCC3)c2)cnc1N)c1c(Cl)ccc(F)c1Cl [Crizotinib] + CS(=O)(=O)CCNCc1ccc(-c2ccc3ncnc(Nc4ccc(OCc5cccc(F)c5)c(Cl)c4)c3c2)o1 [lapatinib] (first compound 0.2 µM, partner dose 0.8 µM) | 163% | 58.7% | 117% |
